PubChem BioAssay AID1224830 | NIAID | 2016
Shown is one part, drawn at random, of about 18,000 reagents tested. About 2,900 of all reagents (16%) were called active. 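Calls are made per well; low scores hint the gene aids the LPS response, high scores that it dampens it.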 Reagents against one gene are numbered here. Repeated entries: four replicate wells of each siRNA pool.

- Aim: 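Genes whose knock-down alters the TNF-alpha reporter response to LPS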 (primary screen)
- System: human THP-1 monocytic leukaemia cells, TNF dual-luciferase reporter clone, PMA-differentiated to macrophage-like cells
- Reagent: siRNA pool against human genes, 50 nM
- Timing: LPS for 4 h, given about 3 days after siRNA transfection
- Challenge: bacterial LPS (TLR4 ligand), 10 ng/ml
- Read-out: 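TNF firefly reporter luminescence divided by renilla, normalised to the plate median, then turned into a robust z-score for each replicate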
- Reading the numbers: TNF reporter robust z-score: higher = stronger TNF reporter response to LPS
- Call rule: 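Each well counts as active if its z-score is over 2.8 or under -1.5; controls are left without a call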

{"gene knocked down": "GPS2", "pool no.": 1, "TNF reporter robust z-score": 0.27, "activity call": "inactive"}
{"gene knocked down": "GPS2", "pool no.": 1, "TNF reporter robust z-score": 0.49, "activity call": "inactive"}
{"gene knocked down": "GPS2", "pool no.": 1, "TNF reporter robust z-score": -0.14, "activity call": "inactive"}
{"gene knocked down": "GPS2", "pool no.": 1, "TNF reporter robust z-score": 1.48, "activity call": "inactive"}
{"gene knocked down": "IGFL4", "pool no.": 1, "TNF reporter robust z-score": 0.48, "activity call": "inactive"}
{"gene knocked down": "IGFL4", "pool no.": 1, "TNF reporter robust z-score": -1.52, "activity call": "active"}
{"gene knocked down": "IGFL4", "pool no.": 1, "TNF reporter robust z-score": 0.08, "activity call": "inactive"}
{"gene knocked down": "IGFL4", "pool no.": 1, "TNF reporter robust z-score": 0.32, "activity call": "inactive"}
{"gene knocked down": "SLC45A2", "pool no.": 1, "TNF reporter robust z-score": 0.03, "activity call": "inactive"}
{"gene knocked down": "SLC45A2", "pool no.": 1, "TNF reporter robust z-score": 0.72, "activity call": "inactive"}
{"gene knocked down": "SLC45A2", "pool no.": 1, "TNF reporter robust z-score": 2.09, "activity call": "inactive"}
{"gene knocked down": "SLC45A2", "pool no.": 1, "TNF reporter robust z-score": 1.61, "activity call": "inactive"}
{"gene knocked down": "DENND10P1", "pool no.": 1, "TNF reporter robust z-score": -0.06, "activity call": "inactive"}
{"gene knocked down": "DENND10P1", "pool no.": 1, "TNF reporter robust z-score": -0.26, "activity call": "inactive"}
{"gene knocked down": "DENND10P1", "pool no.": 1, "TNF reporter robust z-score": 0.79, "activity call": "inactive"}
{"gene knocked down": "DENND10P1", "pool no.": 1, "TNF reporter robust z-score": 2.22, "activity call": "inactive"}
{"gene knocked down": "DNAJC4", "pool no.": 1, "TNF reporter robust z-score": 1.24, "activity call": "inactive"}
{"gene knocked down": "DNAJC4", "pool no.": 1, "TNF reporter robust z-score": 0.97, "activity call": "inactive"}
{"gene knocked down": "DNAJC4", "pool no.": 1, "TNF reporter robust z-score": 2.23, "activity call": "inactive"}
{"gene knocked down": "DNAJC4", "pool no.": 1, "TNF reporter robust z-score": 1.86, "activity call": "inactive"}
{"gene knocked down": "GPR158", "pool no.": 1, "TNF reporter robust z-score": -0.95, "activity call": "inactive"}
{"gene knocked down": "GPR158", "pool no.": 1, "TNF reporter robust z-score": -0.02, "activity call": "inactive"}
{"gene knocked down": "GPR158", "pool no.": 1, "TNF reporter robust z-score": -0.26, "activity call": "inactive"}
{"gene knocked down": "GPR158", "pool no.": 1, "TNF reporter robust z-score": -0.29, "activity call": "inactive"}
{"gene knocked down": "NDRG1", "pool no.": 1, "TNF reporter robust z-score": 0.48, "activity call": "inactive"}
{"gene knocked down": "NDRG1", "pool no.": 1, "TNF reporter robust z-score": 0.93, "activity call": "inactive"}
{"gene knocked down": "NDRG1", "pool no.": 1, "TNF reporter robust z-score": 0.41, "activity call": "inactive"}
{"gene knocked down": "NDRG1", "pool no.": 1, "TNF reporter robust z-score": 0.69, "activity call": "inactive"}
{"gene knocked down": "P2RX1", "pool no.": 1, "TNF reporter robust z-score": 0.87, "activity call": "inactive"}
{"gene knocked down": "P2RX1", "pool no.": 1, "TNF reporter robust z-score": -0.53, "activity call": "inactive"}
{"gene knocked down": "P2RX1", "pool no.": 1, "TNF reporter robust z-score": 1.47, "activity call": "inactive"}
{"gene knocked down": "PTHLH", "pool no.": 1, "TNF reporter robust z-score": 0.65, "activity call": "inactive"}
{"gene knocked down": "PTHLH", "pool no.": 1, "TNF reporter robust z-score": -0.45, "activity call": "inactive"}
{"gene knocked down": "PTHLH", "pool no.": 1, "TNF reporter robust z-score": 3.98, "activity call": "active"}
{"gene knocked down": "PTHLH", "pool no.": 1, "TNF reporter robust z-score": 2.24, "activity call": "inactive"}
{"gene knocked down": "GFOD1", "pool no.": 1, "TNF reporter robust z-score": -0.58, "activity call": "inactive"}
{"gene knocked down": "GFOD1", "pool no.": 1, "TNF reporter robust z-score": -0.43, "activity call": "inactive"}
{"gene knocked down": "GFOD1", "pool no.": 1, "TNF reporter robust z-score": -0.65, "activity call": "inactive"}
{"gene knocked down": "GFOD1", "pool no.": 1, "TNF reporter robust z-score": -0.7, "activity call": "inactive"}
{"gene knocked down": "GFOD1", "pool no.": 2, "TNF reporter robust z-score": -0.49, "activity call": "inactive"}
{"gene knocked down": "GFOD1", "pool no.": 2, "TNF reporter robust z-score": -0.28, "activity call": "inactive"}
{"gene knocked down": "GFOD1", "pool no.": 2, "TNF reporter robust z-score": -0.46, "activity call": "inactive"}
{"gene knocked down": "GFOD1", "pool no.": 2, "TNF reporter robust z-score": -0.22, "activity call": "inactive"}
{"gene knocked down": "CHAF1A", "pool no.": 1, "TNF reporter robust z-score": 2.03, "activity call": "inactive"}
{"gene knocked down": "CHAF1A", "pool no.": 1, "TNF reporter robust z-score": 1.21, "activity call": "inactive"}
{"gene knocked down": "CHAF1A", "pool no.": 1, "TNF reporter robust z-score": 0.4, "activity call": "inactive"}
{"gene knocked down": "CHAF1A", "pool no.": 1, "TNF reporter robust z-score": 1.13, "activity call": "inactive"}

Entries listed so far whose target name starts with N or n:
{"gene knocked down": "NDRG1", "pool no.": 1, "TNF reporter robust z-score": 0.48, "activity call": "inactive"}
{"gene knocked down": "NDRG1", "pool no.": 1, "TNF reporter robust z-score": 0.93, "activity call": "inactive"}
{"gene knocked down": "NDRG1", "pool no.": 1, "TNF reporter robust z-score": 0.41, "activity call": "inactive"}
{"gene knocked down": "NDRG1", "pool no.": 1, "TNF reporter robust z-score": 0.69, "activity call": "inactive"}
